Record: PubChem BioAssay AID504774 (Drosophila RNAi Screening Center, 2011)
Aim: 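Fly genes whose loss alters survival after alkylation damage to DNA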 (primary screen). System: Drosophila Kc167 cells. Knock-down reagent: long dsRNA against Drosophila genes, about 0.25 µg dsRNA per well. Time to read-out: about 6 days: 3 days knock-down, then 3 days with or without MMS. Conditions: methyl methanesulphonate 0.004% (w/v) for 3 days after knock-down. Read-out: 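ATP-dependent luminescence as a measure of live cells in MMS-exposed wells, quantile normalised within each plate, with replicate values also given as a mean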. Scale: mean viability with MMS: higher = more surviving cells after MMS.
The screen tested about 23,000 reagents; this is an unselected part of those with a known target gene and a result. 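Values are quantile-normalised luminescence on an arbitrary scale; higher means more cells surviving MMS.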 Names joined by + are all predicted targets of the reagent. Further read-outs or replicates are left out here. No sequences are given here.

mean viability with MMS, by gene and reagent
Hmu: SID104196497 3.54e6
Naus: SID104185803 3.36e6; SID104186261 3.37e6
eEF1alpha2: SID104193871 3.52e6; SID104196450 3.36e6
CG32148: SID104189130 3.58e6
Atg9: SID104186640 3.60e6
Slimp: SID104193448 3.54e6
Pex14: SID104191546 3.68e6
Cad86C: SID104195379 3.66e6; SID104195403 3.44e6
CG6495: SID104181785 3.55e6
Ppi1: SID104195213 3.46e6
hdm: SID104197805 3.55e6
Cdk12: SID104191628 2.98e6; SID104202680 2.21e6
CG30392: SID104201836 3.50e6
CG8543: SID104190782 3.73e6; SID104202168 3.51e6
CG31954: SID104180372 3.64e6
PolZ2: SID104192117 3.55e6
CG33251 (retired record) + CG9915: SID104200009 3.56e6
aop: SID104180593 2.90e6; SID104202356 3.40e6
18w: SID104184821 3.63e6
CG17683: SID104200952 3.31e6
CG7857: SID104190717 3.46e6
Cpr64Ab: SID104188253 3.48e6

3 entries from above in another layout.
gene	PubChem SID	mean viability with MMS
CG8543	SID104202168	3.51e6
CG31954	SID104180372	3.64e6
PolZ2	SID104192117	3.55e6

The list goes on.
mean viability with MMS, by gene and reagent
YME1L: SID104184170 3.71e6
PIG-L: SID104195369 3.55e6
Ythdf: SID104195828 3.67e6; SID104195829 3.68e6
Snm1: SID104191922 3.73e6
CG17472: SID104182414 3.63e6
CG14100: SID104189893 3.55e6
Cdk4: SID104187150 3.63e6
mRpL24: SID104182905 3.23e6
flap: SID104183710 3.41e6; SID104183879 3.48e6
BicC: SID104181797 3.47e6
CG14658: SID104192036 3.26e6
CG7990: SID104199088 3.54e6; SID104199861 3.09e6; SID104202552 3.44e6
CG12439: SID104181960 3.55e6
Pop4: SID104190747 3.38e6
CG5614: SID104195637 3.49e6
ms(3)76Ba: SID104189883 3.59e6
CG2127: SID104186613 3.58e6
Gbeta5: SID104197546 3.61e6
CG13670: SID104189821 3.41e6
GstS1: SID104187228 3.60e6
Rsbp15: SID104193968 3.43e6
Rcd7: SID104189892 3.53e6
Hr51: SID104186419 3.53e6; SID104202188 3.52e6
CG5335: SID104186723 3.45e6
pyd: SID104192504 3.57e6; SID104194179 3.85e6; SID104194237 3.52e6; SID104194301 3.67e6; SID104196339 3.84e6; SID104196340 3.42e6; SID104196833 3.62e6; SID104201243 3.46e6; SID104202473 3.50e6
pirk: SID104184061 3.68e6
tsl: SID104196882 3.62e6
